From ChEMBL document CHEMBL3988442, “University of Dundee, Small-Polar-MMV Screening Library” (2021).

Amino acid sequences for entries named in this document (tags omitted). Residues count along the entry.
UniProt A4I591, 1-473: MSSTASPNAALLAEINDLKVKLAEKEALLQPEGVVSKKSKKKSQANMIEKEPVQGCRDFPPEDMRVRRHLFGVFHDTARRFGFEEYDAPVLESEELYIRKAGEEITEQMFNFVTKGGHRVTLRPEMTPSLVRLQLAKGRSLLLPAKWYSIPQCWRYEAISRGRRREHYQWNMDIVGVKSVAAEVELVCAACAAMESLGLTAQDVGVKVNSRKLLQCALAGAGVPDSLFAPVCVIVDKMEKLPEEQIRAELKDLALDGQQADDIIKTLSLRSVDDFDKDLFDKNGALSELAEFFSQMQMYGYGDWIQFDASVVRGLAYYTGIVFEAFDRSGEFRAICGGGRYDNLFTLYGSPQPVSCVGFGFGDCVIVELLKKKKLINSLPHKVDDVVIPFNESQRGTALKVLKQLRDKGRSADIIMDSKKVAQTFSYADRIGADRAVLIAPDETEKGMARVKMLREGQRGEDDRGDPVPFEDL
UniProt Q8IDJ8, 1-583: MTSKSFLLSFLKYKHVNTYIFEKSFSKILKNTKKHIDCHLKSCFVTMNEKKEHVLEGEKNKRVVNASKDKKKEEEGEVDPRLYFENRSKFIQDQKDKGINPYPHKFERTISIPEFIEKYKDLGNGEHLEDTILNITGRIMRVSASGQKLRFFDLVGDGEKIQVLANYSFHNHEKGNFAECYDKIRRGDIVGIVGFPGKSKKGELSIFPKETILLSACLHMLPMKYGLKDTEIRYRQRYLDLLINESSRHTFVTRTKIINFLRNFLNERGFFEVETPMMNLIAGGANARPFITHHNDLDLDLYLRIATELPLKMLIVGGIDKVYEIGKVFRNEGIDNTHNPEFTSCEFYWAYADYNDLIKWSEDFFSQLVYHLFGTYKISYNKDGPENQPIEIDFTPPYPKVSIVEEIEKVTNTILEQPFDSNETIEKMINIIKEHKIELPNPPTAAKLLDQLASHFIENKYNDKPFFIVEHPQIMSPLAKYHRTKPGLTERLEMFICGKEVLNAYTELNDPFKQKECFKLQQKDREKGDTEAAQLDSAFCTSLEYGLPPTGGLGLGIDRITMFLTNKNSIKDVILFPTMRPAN

A: 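Enzyme assay of histidyl-tRNA synthetase; the read-out is not stated. Target: Histidine-tRNA ligase, Leishmania infantum (UniProt A4I591). Concentration: 30 µM. The record gives no direction; compounds that gave an IC50 in retests scored well above the rest, so higher reads as stronger inhibition. The assay is labelled LdHisRS but filed under L. infantum. Of about 69,000 compounds tested this way, about 410 (0.6%) reached 50% or more in at least one test.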
B: 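Enzyme assay of the cytosolic lysyl-tRNA synthetase in 384-well plates, read by luminescence. Target: Lysine-tRNA ligase, Plasmodium falciparum 3D7 (UniProt Q8IDJ8). Concentration: 30 µM. Higher reads as stronger inhibition, judged from the few compounds that gave an IC50. About 69,000 compounds were tested under these conditions; 0.071% (about 49) showed 50% or more at least once.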

Values are the deposited “Percent Effect”, in %.
How 0% and 100% were set is not recorded. Most values in the screen are low, and negative values occur.
The compounds are a random part of those screened.

structure,A,B
CCC[C@H]1CN(CCS(C)(=O)=O)C[C@@H]1NC(=O)c1ccccn1,2.857,4.646
O=C(NCc1cccnc1)C1=NOC2(CCN(C(=O)N3CCCC3)C2)C1 (stereo not drawn),28.57,11.88
CC(NC(=O)NCCCOC1CCCCC1)c1nncn1C (stereo not drawn),27.69,4.559
CN(CC(=O)NCC1CCCO1)Cc1nc2c(s1)CCCC2 (stereo not drawn),10,1.322
O=C(c1ncoc1-c1ccco1)N(Cc1ccco1)CC1CCCO1 (stereo not drawn),0,3.086
OCc1c(Cl)ncn1-c1ccc(F)cc1,18.09,5.186
c1ccc(CNc2cc(C3CCCNC3)ccn2)nc1 (stereo not drawn),2.878,1.281
CC(C)C(=O)N1Cc2ccccc2CC2(CCCN2C)C1 (stereo not drawn),8.276,-2.218
O=C(O)c1cccc(CC2CCN(c3cnccn3)CC2)c1,9.211,1.304
N#Cc1ccc(CNc2cnn(CCN3CCOCC3)c2)cc1,21.95,-3.257
CCN(CC)CCNC(=O)CCc1c(C)nn(-c2cccc(Cl)c2)c1C,7.921,1.239
CC(C)CN1CCCn2nc(CNC(=O)NC(C)(C)C)cc2C1,14.04,4.479
Cc1ncsc1C(=O)N(Cc1cccs1)C1CC1,17.59,1.278
C1CCC(c2nc3c(c(N4CC(N5CCOCC5)C4)n2)CCNCC3)C1,7.071,-1.109
COc1cccc(COCC(=O)N2CCCCCC2)c1,12.5,0.08121
OCC1CN(Cc2nc(C(F)(F)F)cs2)c2ccccc2O1 (stereo not drawn),1.724,3.755
CCCN(Cc1nccn1C)C(=O)c1cc(C(C)C)on1,17.5,6.409
CCN1C[C@@H]2CN(C(=O)C3CC=CC3)C[C@@H]2C1=O,-3.419,-23.6
Cc1cc(C)n(CC2(CNC(=O)C(c3ccccc3C)N(C)C)CC2)n1 (stereo not drawn),15.49,0.5908
Cc1cc(N(C)CCC(O)c2ccccc2)n2nccc2n1 (stereo not drawn),14.75,-3.515
CC(C)c1nc(CN2CCOC(Cn3cccn3)C2)no1 (stereo not drawn),3.571,1.125
CN(C)S(=O)(=O)N1CC[C@]2(C[C@@H](OCc3ccccn3)CO2)C1,12,-2.48
Cc1noc(C)c1CN(C)C(=O)C1(NS(C)(=O)=O)CCCCC1,16.67,3.571
CO[C@@]1(C)C[C@@H](O)C12CCN(C(=O)C1(c3ccccc3F)CC1)CC2,9.836,-2.494
Cn1ccnc1COc1ccc(COC(=O)C2CCCO2)cc1 (stereo not drawn),10.67,-3.473
O=C(CCC(=O)c1ccccc1)NC1(C(=O)NCC2CC2)CCCC1,12.28,3.4
CC(C)C(Nc1nc(C(F)(F)F)nc2ccccc12)C(=O)O (stereo not drawn),5,3.645
CC(C)n1ccnc1CN1CCCN(C(=O)c2cnc[nH]2)CC1,6.481,0.5154
Cc1noc(C2CCN(C(=O)CCNc3ncccn3)CC2)n1,23.4,-1.313
CCc1cc(C(=O)NCC2CCN(Cc3ccncc3)CC2)on1,11.43,8.284
CCC(NC(=O)C(C)C)c1ccccc1C (stereo not drawn),5.882,1.797
Cc1cccc(C2CCCCN2C(=O)CCCS(C)(=O)=O)c1C (stereo not drawn),14.52,3.547
CC1=Nc2c(c(=O)[nH]n2C2CCCC2)C(c2cccc(O)c2)S1 (stereo not drawn),21.36,2.647
CCc1c(C)sc2c1c(N)nc(=O)n2CCN1CCCCC1,12.36,2.831
O=C(c1ccc2[nH]ccc2c1)N1CCCCC1c1nc[nH]n1 (stereo not drawn),13.7,-0.4459
O=C(NCCc1cc(F)ccc1F)NCC(O)C1CC1 (stereo not drawn),16.96,3.843
Cc1ccc(CN2Cc3ccnn3CC(C(=O)NCC3CC3)C2)o1 (stereo not drawn),9.722,1.816
COc1cc(CN2CC[C@@]3(CCCO3)[C@@H](O)C2)ccc1F,22.22,3.238
COc1cccn(CC(=O)N(C)CCOc2cc(C)cc(C)c2)c1=O,104.8,8.061
CN1C(=O)CC(C(=O)O)C12CCN(c1ccc3c(n1)CCCC3)CC2 (stereo not drawn),11.48,9.246
CC(=O)c1cc(CC(=O)N2CCCC2c2nc(C(C)C)no2)cs1 (stereo not drawn),20.97,7.675
CN(C)Cc1cnc2n1CCN(C(=O)Cc1ccsc1)CC2,8.621,3.782
Cc1ccnc(C(NC(=O)c2ncoc2C)C2CC2)n1 (stereo not drawn),5.983,-2.955
CC(O)CN1CCN(C(=O)c2ccn(-c3ccc(F)cc3)n2)CC1 (stereo not drawn),5.357,0.8014
CNS(=O)(=O)CC1CCCN1C(=O)c1cccc(Cl)c1 (stereo not drawn),3.333,-0.4524
O=C(CCc1cccs1)Nc1ccnn1C1CCS(=O)(=O)C1 (stereo not drawn),4.505,1.248
CS(=O)(=O)N1Cc2ccccc2CC2(CCN(Cc3ccccc3)C2)C1 (stereo not drawn),19.31,3.361
CCc1noc(C)c1C(=O)N1CCCC1Cn1cccn1 (stereo not drawn),7.895,-0.2249
Cc1cc(C2CCC2)nc(N(C)CCc2ccccn2)n1,11.43,7.736
CC(CNS(C)(=O)=O)c1ccc(F)c(F)c1 (stereo not drawn),-3.175,0.9958
O=C(NCCC1CCCCO1)c1cc(COc2cncc(Cl)c2)on1 (stereo not drawn),14.67,-0.2979
Cc1ccc(N2CCCC(NCC(=O)NC3CCOCC3)C2)nn1 (stereo not drawn),5.405,4.525
CN1CCC(N(C)CCC(=O)N2CCC(OCc3ccccc3)CC2)C1 (stereo not drawn),16.67,2.213
Cc1cc(C)c2[nH]c(C(=O)NCCN3CCOC3=O)c(C)c2c1,7.08,2.225
c1ccc(O[C@@H]2CC[C@H]3[C@H]2OCCN3Cc2ccsc2)nc1,25.71,-2.139
CCN1CCCC12CCN(Cc1cccnc1OC)CC2,-1.724,2.58
CN(CC(=O)NC1(C#N)CCCC1)C1CCCN(c2cccnn2)C1 (stereo not drawn),37.88,6.99
O=C(Cc1ccsc1)N1CCC(n2nc(-c3ccco3)ccc2=O)CC1,22.22,-1.998
CC(=O)NCc1ccc(C(=O)N2CCCC2c2c(C)nn(C)c2C)o1 (stereo not drawn),11.54,2.144
COc1ccc(OC)c(CN(C(=O)c2ccc(C)[nH]c2=O)C2CC2)c1,10.96,2.958
CNC(=O)CCS(=O)(=O)Cc1cc(Cl)c2c(c1)OCCCO2,15.25,1.118
O=C(Cc1ccc2c(c1)CCCC2)NCCc1ccccn1,34.85,2.083
COCCCC(=O)Nc1cc(Cl)c(Cl)cn1,5.983,5.062
Cc1cc(C(=O)NC2CC(=O)N(C(C)C)C2=O)c(C)n1C(C)C (stereo not drawn),17.65,5.299
Cc1nccnc1N1CCC(Cc2ccccc2Cl)(C(=O)O)CC1,19.67,0.8343
CCC1CN(C(=O)c2ccc(=O)[nH]c2)CCC(=O)N1Cc1ccccc1 (stereo not drawn),10.58,3.342
Cc1noc([C@H]2COC[C@H]3CN(C(=O)Cc4cccc(F)c4)C[C@H]32)n1,20.51,2.192
Cc1c(CN2CCOCC2)c(O)n(CCc2ccccc2)c(=O)c1C#N,60.49,10.59
Cc1cc(N2CCCC2c2cccnc2)nc(C)n1 (stereo not drawn),16.67,6.958
CC(=O)N1CCN(C(=O)NCCCc2cn[nH]c2C)CC1,15.52,-2.975
CCC(C)N(Cc1sccc1C)C(=O)c1ccc(S(C)(=O)=O)cc1 (stereo not drawn),4.196,6.916
O=C(c1ccc(N2CCCC2)nn1)N1CCCc2cc(F)c(F)cc21,22.22,3.162
Cn1cncc1C(=O)N1CCOC2(COCCN(CC3CC3)C2)C1 (stereo not drawn),21.15,4.506
CCC[C@H]1CN(CCS(C)(=O)=O)C[C@@H]1NC(=O)c1ccccc1F,5.714,4.456
Cc1cc(C)nc(NC2CCN(CCOC(C)C)CC2)n1,17.65,2.285
Cn1ccnc1CN1CCC2(CC1)COC2,21.15,1.559

The last 10 entries again:

| structure | A | B |
|---|---|---|
| `Cc1noc([C@H]2COC[C@H]3CN(C(=O)Cc4cccc(F)c4)C[C@H]32)n1` | 20.51 | 2.192 |
| `Cc1c(CN2CCOCC2)c(O)n(CCc2ccccc2)c(=O)c1C#N` | 60.49 | 10.59 |
| `Cc1cc(N2CCCC2c2cccnc2)nc(C)n1` (stereo not drawn) | 16.67 | 6.958 |
| `CC(=O)N1CCN(C(=O)NCCCc2cn[nH]c2C)CC1` | 15.52 | -2.975 |
| `CCC(C)N(Cc1sccc1C)C(=O)c1ccc(S(C)(=O)=O)cc1` (stereo not drawn) | 4.196 | 6.916 |
| `O=C(c1ccc(N2CCCC2)nn1)N1CCCc2cc(F)c(F)cc21` | 22.22 | 3.162 |
| `Cn1cncc1C(=O)N1CCOC2(COCCN(CC3CC3)C2)C1` (stereo not drawn) | 21.15 | 4.506 |
| `CCC[C@H]1CN(CCS(C)(=O)=O)C[C@@H]1NC(=O)c1ccccc1F` | 5.714 | 4.456 |
| `Cc1cc(C)nc(NC2CCN(CCOC(C)C)CC2)n1` | 17.65 | 2.285 |
| `Cn1ccnc1CN1CCC2(CC1)COC2` | 21.15 | 1.559 |